Laboratory results: PubChem BioAssay AID1224827 (NIAID, 2016)

Purpose: 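Retest primary hits on a TNF reporter with six siRNAs per gene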 (follow-up of hits)
System: RAW264.7 G9 mouse macrophage reporter clone
Knock-down reagent: single siRNA against mouse genes, 100 nM siRNA
Time to read-out: siRNA for 2 days, then LPS about 16 h
Treatment: bacterial lipopolysaccharide (LPS), 10 ng/ml, cells fixed after overnight (about 16 h) stimulation
Detection: 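Imaged nuclear TNF reporter intensity, background removed, scaled per plate and to non-targeting control wells, as z-scores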
Direction: TNF reporter z-score, mean and TNF reporter z-score: higher = stronger Tnf promoter reporter signal; gene median z, three same-vendor siRNAs: higher = stronger Tnf reporter signal for the gene
Call rule: 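Active siRNA: replicate-mean z-score of 2 or more, or -2 or less; no calls for control wells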
Here is an unselected part of about 3,800 reagents tested. In the full data, about 2,200 (57%) are marked active. 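Active means a strong reporter change in either direction; calls are per siRNA, not per gene; qiagen siRNAs gave weaker effects.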 Unmarked entries are inactive. Reagents against one gene are numbered here.

| target gene | reagent | TNF reporter z-score, mean | gene median z, three same-vendor siRNAs | TNF reporter z-score, repeat 1 | TNF reporter z-score, repeat 2 |
| --- | --- | --- | --- | --- | --- |
| Pura (GeneID 19290) | 1 | -3.06 (active) | -4.83 | -4 | -2.12 |
| Pura (GeneID 19290) | 2 | -4.99 (active) | -4.83 | -5.03 | -4.94 |
| Pura (GeneID 19290) | 3 | -5.1 (active) | -4.83 | -4.73 | -5.47 |
| Pura (GeneID 19290) | 4 | 1.7 | -1.5 | 4.94 | -1.54 |
| Pura (GeneID 19290) | 5 | -2.2 (active) | -1.5 | -3.15 | -1.24 |
| Pura (GeneID 19290) | 6 | -2.31 (active) | -1.5 | -3.14 | -1.47 |
| Or12e9 (GeneID 258345) | 1 | -1.52 | -3.27 | -3.35 | 0.313 |
| Or12e9 (GeneID 258345) | 2 | -3 (active) | -3.27 | -3.19 | -2.82 |
| Or12e9 (GeneID 258345) | 3 | -5.32 (active) | -3.27 | -5.82 | -4.82 |
| Or12e9 (GeneID 258345) | 4 | 1.73 | -0.781 | 2.92 | 0.546 |
| Or12e9 (GeneID 258345) | 5 | -0.781 | -0.781 | 0.397 | -1.96 |
| Or12e9 (GeneID 258345) | 6 | -2.48 (active) | -0.781 | -2.66 | -2.3 |
| Kras (GeneID 16653) | 1 | 4.56 (active) | -0.969 | 1.03 | 8.1 |
| Kras (GeneID 16653) | 2 | -0.969 | -0.969 | -1.29 | -0.644 |
| Kras (GeneID 16653) | 3 | -3.76 (active) | -0.969 | -4.51 | -3.01 |
| Kras (GeneID 16653) | 4 | 0.392 | -0.766 | 1.77 | -0.981 |
| Kras (GeneID 16653) | 5 | -0.216 | -0.766 | 0.715 | -1.15 |
| Kras (GeneID 16653) | 6 | -1.12 | -0.766 | -0.551 | -1.69 |
| Psors1c2 (GeneID 57390) | 1 | -0.519 | -1.71 | -0.993 | -0.0461 |
| Psors1c2 (GeneID 57390) | 2 | -1.55 | -1.71 | -2.43 | -0.671 |
| Psors1c2 (GeneID 57390) | 3 | -3.84 (active) | -1.71 | -4.5 | -3.18 |
| Psors1c2 (GeneID 57390) | 4 | 1.4 | -1.17 | 3.51 | -0.705 |
| Psors1c2 (GeneID 57390) | 5 | -0.988 | -1.17 | -1.65 | -0.325 |
| Psors1c2 (GeneID 57390) | 6 | -1.85 | -1.17 | -1.63 | -2.08 |
